Earlier results, collected in patent US20120088773A1, “Circadian rhythm modulation” (priority 2010, published 2012).
For at least one compound, name, drawing or mass did not settle the structure.

Experiments:
[1] = obese type 2 diabetic patients
[2] = short-term treatment, obese humans
[3] = Syrian hamsters

CC(C)C[C@H]1C(=O)N2CCC[C@H]2[C@]2(O)O[C@](NC(=O)[C@@H]3C=C4c5cccc6[nH]c(Br)c(c56)C[C@H]4N(C)C3)(C(C)C)C(=O)N12 [bromocriptine]
glycemic control and glucose tolerance [1]: improves glycemic control and glucose tolerance
components of the metabolic syndrome [2]: ameliorates various components of the metabolic syndrome
seasonal fattening and seasonal insulin resistance [3]: inhibits seasonal fattening and improves seasonal insulin resistance
